Data reported in publication PMC2994893.
Results are given in words; binding and its absence hold for the method and conditions named. In cells and extracts the contact can be indirect. Some binding calls cover weakened binding; strength is not graded here. Tags and fused reporters may be left off the sequences shown.

The chains behind the UniProt entries cited, without tags or fusion partners.
UniProt P06239: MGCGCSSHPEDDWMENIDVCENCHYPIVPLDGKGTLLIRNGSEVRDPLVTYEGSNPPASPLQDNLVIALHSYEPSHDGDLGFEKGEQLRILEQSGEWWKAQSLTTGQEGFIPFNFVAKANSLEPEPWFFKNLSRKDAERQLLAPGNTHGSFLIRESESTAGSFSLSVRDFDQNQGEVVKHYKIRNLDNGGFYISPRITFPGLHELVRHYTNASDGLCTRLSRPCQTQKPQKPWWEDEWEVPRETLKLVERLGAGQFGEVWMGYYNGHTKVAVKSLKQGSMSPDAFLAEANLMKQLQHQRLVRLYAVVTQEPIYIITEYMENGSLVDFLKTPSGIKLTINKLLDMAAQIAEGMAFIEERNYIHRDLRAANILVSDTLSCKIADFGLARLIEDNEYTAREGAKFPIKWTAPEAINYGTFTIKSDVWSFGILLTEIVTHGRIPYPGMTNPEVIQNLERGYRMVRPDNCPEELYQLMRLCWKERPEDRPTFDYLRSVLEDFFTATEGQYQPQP

Target: Lck (human (endogenous in T cell blasts from healthy donors and in Hut-78 cells)) (UniProt P06239)
Assay: co-IP; Lck immunoprecipitated (3A5 antibody on beads, 2 h, 4°C) from lysates of Hut-78 cells (parental, control, Hut-LAT-WT, Hut-LAT-4YF) stimulated by CD3 crosslinking; blotted with anti-LAT and anti-pLAT-Y191; weak constitutive association reported without stimulation; lysis in 1% NP-40 and 1% n-dodecyl-β-D-maltoside, 150 mM NaCl, pH 7.5

binding: binds
B1: Myc-tagged LAT (protein, UniProt O43561-2 1-233)
chain: MEEAILVPCVLGLLLLPILAMLMALCVHCHRLPGSYDSTSSDSLYPRGIQFKRPHTVAPWPPAYPPVTSYPPLSQPDLLPIPRSPQPLGGSHRTPSSRRDSDGANSVASYENEEPACEDADEDEDDYHNPGYLVVLPDSTPATSTAAPSAPALSTPGIRDSAFSMESIDDYVNVPESGESAEASLDGSREYVNVSQELHPGAAKTEPAALSSQEAEEVEEEGAPDYENLQELN
